From doi:10.1101/2023.10.24.563888
No constants are given. Whether binding was seen depends on the method and setting. In cells and extracts the contact can be indirect. Some binding calls cover weakened binding; strength is not graded here. Where a sequence is shown, tags or fusion partners need not be part of it.

The chains behind the UniProt entries cited, without tags or fusion partners.
UniProt P02538: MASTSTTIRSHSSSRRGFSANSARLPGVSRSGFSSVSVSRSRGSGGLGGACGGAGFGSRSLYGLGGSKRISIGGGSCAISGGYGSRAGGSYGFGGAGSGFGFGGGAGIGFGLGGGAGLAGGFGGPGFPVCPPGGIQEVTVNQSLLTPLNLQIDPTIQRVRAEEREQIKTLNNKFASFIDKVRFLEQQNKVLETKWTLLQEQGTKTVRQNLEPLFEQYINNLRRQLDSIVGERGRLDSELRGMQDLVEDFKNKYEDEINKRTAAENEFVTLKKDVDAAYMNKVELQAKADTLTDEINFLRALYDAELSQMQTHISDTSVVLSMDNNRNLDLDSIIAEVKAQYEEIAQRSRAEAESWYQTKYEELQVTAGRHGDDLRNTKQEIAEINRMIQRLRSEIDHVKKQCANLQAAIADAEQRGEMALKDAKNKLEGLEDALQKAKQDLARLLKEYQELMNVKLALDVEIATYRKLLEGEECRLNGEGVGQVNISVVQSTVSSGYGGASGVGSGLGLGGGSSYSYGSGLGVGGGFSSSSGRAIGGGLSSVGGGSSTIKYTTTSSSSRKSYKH

Biological target: T1, Flag-tagged ELKS (UniProt Q8IUD2)
T1 sequence: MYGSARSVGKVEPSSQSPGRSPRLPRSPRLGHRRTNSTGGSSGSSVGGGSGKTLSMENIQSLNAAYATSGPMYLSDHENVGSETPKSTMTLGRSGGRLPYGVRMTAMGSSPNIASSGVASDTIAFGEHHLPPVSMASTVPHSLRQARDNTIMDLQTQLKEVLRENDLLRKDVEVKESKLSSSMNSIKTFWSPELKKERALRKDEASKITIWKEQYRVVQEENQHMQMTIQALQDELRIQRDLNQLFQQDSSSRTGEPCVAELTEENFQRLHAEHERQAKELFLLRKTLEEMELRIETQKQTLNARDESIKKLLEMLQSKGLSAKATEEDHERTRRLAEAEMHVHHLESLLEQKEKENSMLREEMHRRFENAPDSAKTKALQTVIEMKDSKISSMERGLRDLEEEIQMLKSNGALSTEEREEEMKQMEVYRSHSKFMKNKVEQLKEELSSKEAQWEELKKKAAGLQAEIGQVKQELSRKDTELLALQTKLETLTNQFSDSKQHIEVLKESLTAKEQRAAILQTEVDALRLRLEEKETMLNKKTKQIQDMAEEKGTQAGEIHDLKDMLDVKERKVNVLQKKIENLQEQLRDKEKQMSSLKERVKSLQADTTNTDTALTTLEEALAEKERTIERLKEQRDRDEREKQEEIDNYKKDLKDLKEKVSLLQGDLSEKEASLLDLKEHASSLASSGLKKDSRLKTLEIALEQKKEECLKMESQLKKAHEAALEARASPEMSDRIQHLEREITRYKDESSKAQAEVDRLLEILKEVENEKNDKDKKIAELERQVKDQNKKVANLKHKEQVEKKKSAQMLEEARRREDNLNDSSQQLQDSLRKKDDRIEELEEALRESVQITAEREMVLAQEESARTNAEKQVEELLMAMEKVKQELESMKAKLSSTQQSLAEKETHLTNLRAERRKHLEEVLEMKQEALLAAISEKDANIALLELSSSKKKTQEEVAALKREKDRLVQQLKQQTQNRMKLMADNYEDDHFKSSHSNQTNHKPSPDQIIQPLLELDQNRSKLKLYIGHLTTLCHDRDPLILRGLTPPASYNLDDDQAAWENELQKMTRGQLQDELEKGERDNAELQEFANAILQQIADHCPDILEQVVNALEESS
Assay: co-IP

binding: binds
Substance: K6a overexpressed in 293T cells (from UniProt P02538 1-564)
